Test results: article PMC11787510
These are yes or no findings as the source states them, for the method shown. Binding seen in cells or lysates may run through a third protein. Some results given as binding are weak or reduced against the parent protein; the word gives no strength. Where a sequence is shown, tags or fusion partners need not be part of it.

The chains behind the UniProt entries cited, without tags or fusion partners. Where a name states a change or a piece, a line headed by the entry shows the natural chain unless it says otherwise. A line that says so, or that is headed by a name, gives the form on record, which may keep a tag or linker.
Strep-GFP-tagged TSC2 (P49815, form named): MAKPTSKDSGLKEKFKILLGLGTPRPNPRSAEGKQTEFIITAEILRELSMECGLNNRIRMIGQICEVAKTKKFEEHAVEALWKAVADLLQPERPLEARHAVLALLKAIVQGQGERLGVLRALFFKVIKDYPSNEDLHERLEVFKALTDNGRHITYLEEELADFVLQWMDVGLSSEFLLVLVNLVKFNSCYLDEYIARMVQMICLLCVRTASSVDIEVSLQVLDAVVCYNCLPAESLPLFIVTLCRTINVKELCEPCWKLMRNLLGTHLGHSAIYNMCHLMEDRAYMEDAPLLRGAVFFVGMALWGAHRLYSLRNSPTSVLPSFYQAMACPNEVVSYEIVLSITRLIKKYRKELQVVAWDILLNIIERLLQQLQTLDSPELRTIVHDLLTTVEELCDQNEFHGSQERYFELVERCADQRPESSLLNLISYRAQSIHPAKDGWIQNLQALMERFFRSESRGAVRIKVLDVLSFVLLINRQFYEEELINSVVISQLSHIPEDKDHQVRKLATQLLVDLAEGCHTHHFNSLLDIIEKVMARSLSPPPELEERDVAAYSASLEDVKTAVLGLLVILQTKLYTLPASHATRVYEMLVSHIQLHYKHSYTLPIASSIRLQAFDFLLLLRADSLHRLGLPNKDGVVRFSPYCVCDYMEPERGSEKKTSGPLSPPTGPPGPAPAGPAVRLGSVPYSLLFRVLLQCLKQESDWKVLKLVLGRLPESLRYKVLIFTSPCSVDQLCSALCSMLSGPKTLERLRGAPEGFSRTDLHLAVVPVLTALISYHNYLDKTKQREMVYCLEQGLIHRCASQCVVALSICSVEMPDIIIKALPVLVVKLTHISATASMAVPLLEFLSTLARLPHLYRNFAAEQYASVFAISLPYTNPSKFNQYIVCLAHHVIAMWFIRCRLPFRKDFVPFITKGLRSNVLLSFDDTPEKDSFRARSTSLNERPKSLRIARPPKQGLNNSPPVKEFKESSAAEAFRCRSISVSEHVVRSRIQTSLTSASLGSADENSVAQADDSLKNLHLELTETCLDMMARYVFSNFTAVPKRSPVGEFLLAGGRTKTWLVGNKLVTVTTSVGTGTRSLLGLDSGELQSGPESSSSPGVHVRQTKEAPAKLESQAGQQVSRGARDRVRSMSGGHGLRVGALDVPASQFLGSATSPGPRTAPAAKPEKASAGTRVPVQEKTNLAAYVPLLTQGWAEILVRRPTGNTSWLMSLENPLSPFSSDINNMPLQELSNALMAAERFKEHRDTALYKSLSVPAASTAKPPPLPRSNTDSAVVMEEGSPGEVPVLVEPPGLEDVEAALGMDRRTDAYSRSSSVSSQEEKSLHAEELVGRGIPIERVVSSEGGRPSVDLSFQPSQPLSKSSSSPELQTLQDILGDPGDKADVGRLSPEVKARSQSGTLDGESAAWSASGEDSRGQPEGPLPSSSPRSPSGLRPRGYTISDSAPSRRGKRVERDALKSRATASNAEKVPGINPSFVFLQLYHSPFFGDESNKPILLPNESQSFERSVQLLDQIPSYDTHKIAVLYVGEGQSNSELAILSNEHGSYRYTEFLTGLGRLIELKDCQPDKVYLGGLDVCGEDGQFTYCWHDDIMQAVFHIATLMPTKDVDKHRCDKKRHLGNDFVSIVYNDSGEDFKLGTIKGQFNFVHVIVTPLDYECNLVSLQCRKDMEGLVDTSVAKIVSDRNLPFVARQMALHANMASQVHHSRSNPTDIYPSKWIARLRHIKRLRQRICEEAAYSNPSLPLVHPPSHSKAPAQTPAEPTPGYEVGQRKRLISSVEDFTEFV

Target: Strep-GFP-tagged TSC2 (UniProt P49815)
Experiment: co-IP; lysate with Strep-GFP-TSC2 mixed with lysate with TSC1-myc and HiBiT-Rheb, without or with 5.5 μM His-CaM (WT or DA) and 100 μM CaCl2; IP with anti-GFP antibody, Western blot with myc and anti-GFP antibodies

B1: myc-tagged TSC1 (protein, UniProt Q92574 1-1164)
chain: MAQQANVGELLAMLDSPMLGVRDDVTAVFKENLNSDRGPMLVNTLVDYYLETSSQPALHILTTLQEPHDKHLLDRINEYVGKAATRLSILSLLGHVIRLQPSWKHKLSQAPLLPSLLKCLKMDTDVVVLTTGVLVLITMLPMIPQSGKQHLLDFFDIFGRLSSWCLKKPGHVAEVYLVHLHASVYALFHRLYGMYPCNFVSFLRSHYSMKENLETFEEVVKPMMEHVRIHPELVTGSKDHELDPRRWKRLETHDVVIECAKISLDPTEASYEDGYSVSHQISARFPHRSADVTTSPYADTQNSYGCATSTPYSTSRLMLLNMPGQLPQTLSSPSTRLITEPPQATLWSPSMVCGMTTPPTSPGNVPPDLSHPYSKVFGTTAGGKGTPLGTPATSPPPAPLCHSDDYVHISLPQATVTPPRKEERMDSARPCLHRQHHLLNDRGSEEPPGSKGSVTLSDLPGFLGDLASEEDSIEKDKEEAAISRELSEITTAEAEPVVPRGGFDSPFYRDSLPGSQRKTHSAASSSQGASVNPEPLHSSLDKLGPDTPKQAFTPIDLPCGSADESPAGDRECQTSLETSIFTPSPCKIPPPTRVGFGSGQPPPYDHLFEVALPKTAHHFVIRKTEELLKKAKGNTEEDGVPSTSPMEVLDRLIQQGADAHSKELNKLPLPSKSVDWTHFGGSPPSDEIRTLRDQLLLLHNQLLYERFKRQQHALRNRRLLRKVIKAAALEEHNAAMKDQLKLQEKDIQMWKVSLQKEQARYNQLQEQRDTMVTKLHSQIRQLQHDREEFYNQSQELQTKLEDCRNMIAELRIELKKANNKVCHTELLLSQVSQKLSNSESVQQQMEFLNRQLLVLGEVNELYLEQLQNKHSDTTKEVEMMKAAYRKELEKNRSHVLQQTQRLDTSQKRILELESHLAKKDHLLLEQKKYLEDVKLQARGQLQAAESRYEAQKRITQVFELEILDLYGRLEKDGLLKKLEEEKAEAAEAAEERLDCCNDGCSDSMVGHNEEASGHNGETKTPRPSSARGSSGSRGGGGSSSSSSELSTPEKPPHQRAGPFSSRWETTMGEASASIPTTVGSLPSSKSFLGMKARELFRNKSESQCDEDGMTSSLSESLKTELGKDLGVEAKIPLNLDGPHPSPPTPDSVGQLHIMDYNETHHEHS
B1 was tested, and the binding was “binds”.
